Reference: PubChem BioAssay AID504847 (National Center for Advancing Translational Sciences (NCATS), 2011)
The whole screen tested about 400,000 compounds, of which about 3,700 (0.93%) were called active. This list was built around the results that the source calls inconclusive (neither active nor inactive); the mix of calls is not that of the screen. Calls come from the whole dose curve; as a rule, active = well fitted inhibition curve with a large enough effect; inconclusive = small, poorly fitted or top-dose-only effect, or another doubt; inactive = no such curve, though single readings can be large or run the other way. Potencies of inconclusive entries are doubtful fits and often do not repeat. A structure can be active in one record and inactive in another.

Sequences of proteins named here, by UniProt entry; tags and fusion partners are left off. A change or cut given only in a name is not applied to a line headed by its entry.
UniProt P11473: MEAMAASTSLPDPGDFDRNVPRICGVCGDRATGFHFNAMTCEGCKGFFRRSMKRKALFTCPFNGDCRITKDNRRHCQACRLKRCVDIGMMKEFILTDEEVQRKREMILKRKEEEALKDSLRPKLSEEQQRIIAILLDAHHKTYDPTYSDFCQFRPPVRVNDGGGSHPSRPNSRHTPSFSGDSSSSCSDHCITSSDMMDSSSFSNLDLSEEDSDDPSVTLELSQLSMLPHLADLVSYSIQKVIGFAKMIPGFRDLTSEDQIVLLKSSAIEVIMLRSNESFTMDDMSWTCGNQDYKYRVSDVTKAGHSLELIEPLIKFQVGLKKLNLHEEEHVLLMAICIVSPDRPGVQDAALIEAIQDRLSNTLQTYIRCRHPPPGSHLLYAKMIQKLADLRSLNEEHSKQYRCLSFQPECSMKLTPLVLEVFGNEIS

Target: Vitamin D3 receptor (Homo sapiens) (UniProt P11473)
Experiment: Inhibitors of the vitamin D receptor (VDR): qHTS
Conditions: VDR-SRC2-3 peptide fluorescence polarization, 2 h; max response, negative = inhibition: hits give low values
Procedure, shortened: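 The screen uses fluorescence polarization to detect compounds that interfere with recruitment of the SRC2-3 coactivator peptide to VDR; plates are read after 2 h at room temperature.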
% is set by controls: 0 for no effect and ±100 for the full control effect; potency is the fitted concentration of half-maximal effect.

| Structure (SMILES) | Potency | max response, negative = inhibition |
| --- | --- | --- |
| CN(C)S(=O)(=O)c1cccc(NC(=O)COC(=O)/C=C/c2ccco2)c1 | inconclusive: 31.6 µM [inhibitor, full curve, poor fit] | – |
| COc1cc(C(=O)NC(=S)Nc2ccc(Cl)cn2)cc(OC)c1OC | inconclusive: 35.5 µM [inhibitor, partial curve, poor fit] | – |
| CS(=O)(=O)c1ccc(Cl)c(NC(=O)Nc2ccccc2)c1 | inconclusive: 7.08 µM [inhibitor, partial curve, poor fit] | – |
| Cc1ccc2cc(C(c3nnnn3Cc3ccccc3)N3CCc4ccccc43)c(=O)[nH]c2c1 (centres undefined) | – | inactive: 23.6% |
| O=C1N=C(N2CCOCC2)S/C1=C\c1ccccc1OS(=O)(=O)c1ccccc1 | – | inactive: -9.49% |
| CCC(=O)Nc1sc2c(c1C(=O)Nc1ccc(Br)cc1)CCCCC2 | active: 14.1 µM | – |
| CCOC(=O)c1sc(NC(=O)C(C)C)c(C#N)c1C | active: 28.2 µM | – |
| COc1ccc(-c2nc3cnc(N4CCOCC4)nc3n(-c3ccc(OC)cc3)c2=O)cc1 | inconclusive: 89.1 µM [inhibitor, single point] | – |
| Cc1noc(C)c1C(=O)OCC(=O)Nc1ccc(C(N)=O)cc1 | – | inactive: -14.8% |
| CC1CCN(S(=O)(=O)c2ccc3nc(N4CCN(c5ccc(F)cc5)CC4)ccc3c2)CC1 | – | inactive: 7.71% |
| CCN(CC)c1ccc(Nc2nc(-c3cccnc3)cs2)cc1 | inconclusive: 70.8 µM [inhibitor, partial curve] | – |
| CCCCc1nn(-c2ccccc2C(F)(F)F)c(=O)n1Cc1ccc(-c2ccccc2S(=O)(=O)NC(=O)c2sccc2C)cc1 | active: 44.7 µM | – |
| Clc1ccc(OCCCCSc2ncccn2)cc1 | – | inactive: -13.5% |
| Cc1nc2ccc(NC3=NCCCCC3)cc2s1 | inconclusive: 89.1 µM [inhibitor, single point] | – |
| O=C(N/N=C/c1ccsc1)c1cc(-c2cccs2)nc2ccccc12 | – | inactive: -1.01% |
| CN1CCN(c2ccc(S(=O)(=O)N3CCCCC3)cc2NC(=O)c2cccc([N+](=O)[O-])c2)CC1 | inconclusive: 100 µM [inhibitor, single point] | – |
| Cc1c(O)cccc1C(=O)N[C@@H](CSc1ccccc1)[C@H](O)CN1C[C@H]2CCCC[C@H]2C[C@H]1C(=O)NC(C)(C)C | inconclusive: 79.4 µM [inhibitor, partial curve, poor fit] | – |
| COc1cccc(SCc2noc(C(=O)NCCCN3CCOCC3)c2C(=O)NCCCN2CCOCC2)c1 | – | inactive: -1.17% |
| Cc1ccc(NC(=O)NC(=O)N(C2CCCCC2)S(=O)(=O)c2ccccc2)cc1 | inconclusive: 89.1 µM [inhibitor, single point] | – |
| Cc1ccc(OS(=O)(=O)c2cn(C)c(=O)n(C)c2=O)cc1C | – | inactive: 21.5% |
| CC(/C=C/c1ccco1)=N/NC(=O)OC(C)(C)C | inconclusive: 89.1 µM [inhibitor, single point] | – |
| CNc1nc(-c2ccccc2Cl)nc2ccccc12 | inconclusive: 70.8 µM [inhibitor, partial curve, poor fit] | – |
| O=C(/C=C/c1cccs1)c1cc(Br)ccc1OC(=O)N1CCOCC1 | inconclusive: 79.4 µM [inhibitor, partial curve] | – |

| Structure (SMILES) | Potency | max response, negative = inhibition |
| --- | --- | --- |
| CCOCCCNC1=C(Cl)C(=O)c2ccccc2C1=O | inconclusive: 79.4 µM [inhibitor, single point] | – |
| COc1ccc(OC)c(NC(=O)c2nc(S(=O)(=O)Cc3ccccc3)ncc2Cl)c1 | active: 10 µM | – |
| Nc1nc(-c2ccccc2Cl)cs1 | inconclusive: 89.1 µM [inhibitor, single point] | – |
| O=C(CCS(=O)(=O)c1nc(-c2cccs2)cc(C(F)(F)F)n1)Nc1ccc(Br)cc1 | active: 14.1 µM | – |
| COc1ccc(N2C(=O)CCC(C(=O)NCc3cccnc3)C2c2ccc(OC)c(OC)c2)cc1 (centres undefined) | inconclusive: 100 µM [inhibitor, single point] | – |
| Cc1ccc(NC(=O)c2cc(-c3cccs3)nc3ccccc23)nc1 | – | inactive: 4.3% |
| Oc1ccccc1/C=N/NC(=S)NC1CC2C=CC1C2 (centres undefined) | – | inactive: 16.3% |
| Cc1nc(CN2CCC(c3ccccc3)CC2)cc(=O)[nH]1 | inconclusive: 89.1 µM [inhibitor, single point] | – |
| CC(=O)c1ccc(Nc2nc(C)cc(C)n2)cc1 | – | inactive: 0.627% |
| Cc1ccc(S(=O)(=O)Cn2nnnc2C(C(C)C)N2CCC(C(N)=O)CC2)cc1 (centres undefined) | inconclusive: 70.8 µM [inhibitor, partial curve] | – |
| Cn1c(N)c(C(=O)COC(=O)C2(c3ccccc3F)CCCC2)c(=O)n(C)c1=O | – | inactive: -3.23% |
| COc1ccc(C2CC(=O)N3CN(c4ccc(C)c(Cl)c4)CSC3=C2C#N)cc1OC (centres undefined) | active: 22.4 µM | – |
| CCCCC(CC)CCC(CC(C)C)OS(=O)(=O)O (centres undefined) | inconclusive: 44.7 µM [inhibitor, partial curve] | – |
| Cc1cc(C)c2c(c1)C1C=CCC1C(C(=O)O)N2 (centres undefined) | inconclusive: 70.8 µM [inhibitor, single point] | – |
| CC(=O)NC1C(=O)N(Cc2ccccc2)c2ccc(Br)cc21 (centres undefined) | inconclusive: 28.2 µM [inhibitor, single point] | – |
| CC(=O)Nc1ccccc1NS(=O)(=O)c1ccccc1NO | inconclusive: 56.2 µM [inhibitor, partial curve, poor fit] | – |
| CN(Cc1ccco1)c1ncnc2ccc(-c3ccccc3Cl)cc12 | active: 50.1 µM | – |
| CCOC(=O)c1[nH]c2ccccc2c1NC(=S)Nc1cc(C)ccc1C | – | inactive: -23.1% |
| Cc1ccc(S(=O)(=O)N2CCCCC2)cc1NC(=O)CSc1nnc(C2CC2)n1C | inconclusive: 79.4 µM [inhibitor, single point] | – |
| C=CCn1c(SCC(C)=O)nc2scc(-c3ccc(C)o3)c2c1=O | – | inactive: -11.6% |
| Cc1cccc(NC(=O)COc2ccc(/C=C\c3[nH]c(=O)[nH]c(=O)c3[N+](=O)[O-])cc2)c1 | inconclusive: 7.94 µM [inhibitor, full curve, poor fit] | – |
| CC(=O)c1ccccc1NS(=O)(=O)c1ccccc1Cl | inconclusive: 89.1 µM [inhibitor, single point] | – |
| C/C=C/Cn1c(SCc2ccc(Cl)cc2)nc2c1c(=O)[nH]c(=O)n2C | inconclusive: 79.4 µM [inhibitor, partial curve, poor fit] | – |

Individual results from the entries so far:
Potency with CC(=O)c1ccccc1NS(=O)(=O)c1ccccc1Cl reads inconclusive: 89.1 µM [inhibitor, single point]
Potency with COc1ccc(N2C(=O)CCC(C(=O)NCc3cccnc3)C2c2ccc(OC)c(OC)c2)cc1 (centres undefined) reads inconclusive: 100 µM [inhibitor, single point]

Looked up one by one from the entries so far:

| Structure (SMILES) | Potency | max response, negative = inhibition |
| --- | --- | --- |
| Clc1ccc(OCCCCSc2ncccn2)cc1 | – | inactive: -13.5% |
| Nc1nc(-c2ccccc2Cl)cs1 | inconclusive: 89.1 µM [inhibitor, single point] | – |
| Cc1nc2ccc(NC3=NCCCCC3)cc2s1 | inconclusive: 89.1 µM [inhibitor, single point] | – |

(continued)

| Structure (SMILES) | Potency | max response, negative = inhibition |
| --- | --- | --- |
| COc1ccc(NC(=O)CN2CCN(c3nc(-c4cccc(OC)c4)cs3)CC2)cc1 | inconclusive: 79.4 µM [inhibitor, partial curve, poor fit] | – |
| O/N=C\c1ccccc1Oc1ccc(F)cc1 | – | inactive: -9.73% |
| O=C(c1csnn1)N1CCC2(CCCN(C(c3ccccc3)c3ccccc3)C2)CC1 | inconclusive: 44.7 µM [inhibitor, partial curve, poor fit] | – |
| Cc1ccc(C(=O)N/C(=C/c2ccco2)C(=O)Nc2cccc(C)c2)cc1 | – | inactive: 6.93% |
| Cc1cccc(-c2n[nH]c(=S)n2-c2ccccc2)c1[N+](=O)[O-] | – | inactive: -20.1% |
| CC(C)N=c1cc2n(-c3ccc(Cl)cc3)c3ccccc3nc-2cc1Nc1ccc(Cl)cc1 | inconclusive: 28.2 µM [inhibitor, partial curve] | – |
| O=C(Oc1ccc(N(C(=O)c2ccncc2)S(=O)(=O)c2ccc(F)cc2)cc1)c1ccncc1 | inconclusive: 20 µM [inhibitor, partial curve, poor fit] | – |
| Cc1cc(C(=O)OCC(=O)Nc2nccs2)c2ccccc2n1 | inconclusive: 39.8 µM [inhibitor, single point] | – |
| CCCCC(=O)Nc1sc2c(c1C#N)CC(C)(C)OC2 | active: 79.4 µM | – |
| CC(C)C(=O)N(c1cc2sc(=O)oc2c2ccccc12)S(=O)(=O)c1cccs1 | active: 35.5 µM | – |
| O=C(O)c1ccccc1C(=O)Nc1n[nH]c(=S)s1 | inconclusive: 25.1 µM [inhibitor, full curve, poor fit] | – |
| COCCNc1cc(-c2ccccc2C(F)(F)F)ncn1 | inconclusive: 44.7 µM [inhibitor, full curve] | – |
| Cc1noc(C)c1S(=O)(=O)Nc1ccc(C(=O)Nc2ccc(C(C)C)cc2)cc1 | – | inactive: -5.52% |
| CCOc1ccc(NC(=O)CSc2nc3c([nH]c4ccccc43)c(=O)n2C)cc1 | inconclusive: 100 µM [inhibitor, partial curve, poor fit] | – |
| O=C(/C=C/c1cccs1)NC1CCS(=O)(=O)C1 (centres undefined) | active: 89.1 µM | – |
| Cc1cc(CNC(=O)C(C)n2cc([N+](=O)[O-])cn2)c2ccccc2n1 (centres undefined) | inconclusive: 79.4 µM [inhibitor, single point] | – |
| CCOC(=O)c1c(-c2ccccc2)csc1NC(=O)C1CCCO1 (centres undefined) | – | inactive: -61.2% |
| COc1ccc(-n2c(SCC(=O)C(C)(C)C)nc3c(sc(=S)n3-c3ccccc3)c2=O)c(OC)c1 | active: 31.6 µM | – |
| CSc1nnc(NC(=O)c2ccc3c(c2)OCO3)s1 | inconclusive: 70.8 µM [inhibitor, partial curve] | – |
| Cc1ccc(C(=O)CCNc2ccc(Br)cc2)o1 | inconclusive: 12.6 µM [inhibitor, partial curve, poor fit] | – |
| COc1cccc(CNC(=O)CSc2nc3ccc(C)cc3[nH]2)c1 | inconclusive: 100 µM [inhibitor, single point] | – |
| CCc1ccc(NS(=O)(=O)c2ccc3[nH]cc(C(=O)N4CCc5ccccc54)c(=O)c3c2)cc1 | – | inactive: -3.47% |
| COc1cc(OC)c2c(c1)OC(=O)CC2c1ccc2c(c1)OCO2 (centres undefined) | inconclusive: 79.4 µM [inhibitor, partial curve, poor fit] | – |
